At least one peptide structure holds a part that was inferred or is arguable (an end, a ring closure or a residue).
Key:
[1] = test system: Primary astrocytes; assay: Astrocyte culture, quantitation of secreted cytokines (ELISA); format: cell-based, rat; details: astrocyte conditioned media; 10 μM peptide for 12 hr; mean ±S.E.M.
[2] = test system: astrocytes; assay: Astrocyte activation indicated by morphological changes; format: cell-based, rat; details: peptide preparations
[3] = test system: B12 cells; details: Liu and Schubert 1997; cited from earlier work

Which “IL-1β” value [1] does the source give for `CC[C@H](C)[C@H](NC(=O)[C@H](C)NC(=O)CNC(=O)[C@H](Cc1ccccc1)NC(=O)[C@H](CC(N)=O)NC(=O)[C@H](CC(N)=O)NC(=O)[C@H](CO)NC(=O)[C@H](CO)NC(=O)[C@H](Cc1c[nH]cn1)NC(=O)[C@@H](NC(=O)[C@H](CC(C)C)NC(=O)[C@H](Cc1ccccc1)NC(=O)[C@H](CC(N)=O)NC(=O)[C@H](C)NC(=O)[C@H](CC(C)C)NC(=O)[C@H](CCCNC(=N)N)NC(=O)[C@H](CCC(N)=O)NC(=O)[C@@H](NC(=O)[C@H](C)NC(=O)[C@@H]1CSSC[C@H](NC(=O)[C@@H](N)CCCCN)C(=O)N[C@@H](CC(N)=O)C(=O)N[C@@H]([C@@H](C)O)C(=O)N[C@@H](C)C(=O)N[C@@H]([C@@H](C)O)C(=O)N1)[C@@H](C)O)C(C)C)C(=O)N[C@@H](CC(C)C)C(=O)N[C@@H](CO)C(=O)N[C@@H](CO)C(=O)N[C@H](C(=O)N[C@@H](CC(N)=O)C(=O)N[C@H](C(=O)NCC(=O)N[C@@H](CO)C(=O)N[C@@H](CC(N)=O)C(=O)N[C@H](C(=O)N[C@@H](Cc1ccc(O)cc1)C(N)=O)[C@@H](C)O)C(C)C)[C@@H](C)O` [Human amylin] here?
The value was 485 ± 58 pg/mL.

What about the “TNF-α” value [1] of the same molecule?
Its value is 245 ± 56 pg/mL.

What about the “astrocyte activation as indicated by the morphological changes of the astrocytes (in words)” value [2] of the same molecule?
The value was “activate astrocytes”.

What about the “enhancement of MTT formazan exocytosis” value [3] of the same molecule?
The value was “dramatically enhance”.

Source: patent publication US7053116B2, “Methods for protecting cells from amyloid toxicity and for inhibiting amyloid protein production” (The Salk Institute for Biological Studies, priority 2000, dated 2006)
